Among the data in PubChem BioAssay AID996 (National Center for Advancing Translational Sciences (NCATS), 2007) are activity change, negative = inhibition values, retold here.

Some of the results follow. Where no call is shown, the source marks the result inconclusive.

The target of this test is Caspase-1 (Homo sapiens) (UniProt P29466). In words: Concentration-Response Counterscreen for Redox Active Inhibitors of Caspase-1: Summary. Conditions: caspase-1 enzyme activity, redox counterscreen (DTT/Cys/catalase); at 57.5 µM (top of the series; calls come from the whole dose curve). An excerpt: NIH Molecular Libraries Screening Centers Network [MLSCN]
NIH Chemical Genomics Center [NCGC]
PI Name: Dr. James Wells,
Dr. Enrique Perez-Paya, Dr.Janice Williams, Dr. Dennis Wolan, a person
The caspases (Cysteine Aspartyl Protease) comprise a related family of 14 dimeric proteases that are critical mediators of apoptosis (programmed cell death) and inflammation. The caspases represent an important class of drug targets for stroke, ischemia, cancer and inflammatory diseases. […] One goal of this project was to identify compounds that act as allosteric inhibitors via stabilizing the procaspase form of the enzyme. Previous work in Well's laboratory has shown that such allosteric inhibitors can be identified and these act by binding at the dimer interface of enzyme (Hardy, Lam et al., 2004).
The biochemical assay was configured using purified caspase 1 at a high enzyme concentration to promote formation of the homodimers and thus facilitate the identification of allosteric inhibitors. The overall goal was to identify reversible inhibitors with better drug-like properties than the currently available set of aspartyl-containing peptidomimetics that covalently bind the active site. […] After initiation of the assay with substrate the plates were rapidly read using an automated robotic system (Kalypsys, Inc.) to maintain consistent timing. […] Product formation was also measured after 1 hour. […]

With `COc1ccc2c(c1)Cc1sc(NC(=O)c3cccs3)nc1-2`, the activity change, negative = inhibition was -47.7%.

As to `CC(=O)[C@@H]1[C@@H]2C(=O)N(c3ccc(F)c(Cl)c3)C(=O)[C@@H]2C2c3ccccc3C=CN21` (some centres not stated), the activity change, negative = inhibition was -75.7%.
